Results deposited as PubChem BioAssay AID1259308 (NCATS, 2017).
In all, the deposit lists about 59,000 reagents; shown is an unselected part. About 1,510 of all reagents (2.6%) count as active. 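Calls use total luciferase alone and ignore viability, so some active siRNAs may act by altering cell number.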 A number with no mark means an inactive call. Reagents against one gene are numbered here. Not all columns of the deposit are shown. No sequences are given here.

Test: 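Candidate targets for better recombinant protein yield in mammalian cells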 (primary screen)
Cell system: human HEK293 embryonic kidney cells stably expressing firefly luciferase (HEK-CMV-Luc2-Hygro)
Reagent: single siRNA against human genes, 0.8 pmol siRNA per well
Timing: 72 h
Measured: 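Luciferase light (ONE-Glo) measured on one replicate plate set and viability (CellTiter-Glo) on the other, scaled to a negative control siRNA, with robust z-scores and luciferase per cell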
Reading the numbers: total luciferase, z-score and total luciferase, % of control: higher = more reporter protein produced
Rule for the call: 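An siRNA counts as active if its total luciferase robust z-score exceeds 3; genes with two or more such siRNAs out of three were retested with fresh siRNAs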
Calls: active = raised luciferase; inactive = no rise

no.	target	siRNA no.	total luciferase, z-score	total luciferase, % of control
1	PJVK	1	0.539	92.6
2	PJVK	2	1.71	116
3	PJVK	3	-1.31	55.8
4	CLDN12	1	-0.899	64
5	CLDN12	2	-0.221	77.5
6	CLDN12	3	-1.5	52
7	SEC14L1	1	1.51	112
8	SEC14L1	2	-1.72	47.6
9	SEC14L1	3	-1.59	50.2
10	CDC34	1	0.205	86
11	CDC34	2	0.628	94.4
12	CDC34	3	-2.41	33.9
13	SVOPL	1	1.18	105
14	SVOPL	2	2.22	126
15	SVOPL	3	-0.586	70.2
16	CFAP206	1	0.568	93.2
17	CFAP206	2	-0.371	74.5
18	CFAP206	3	0.869	99.2
19	OR10AG1	1	-0.339	75.1
20	OR10AG1	2	-2.36	35
21	OR10AG1	3	0.557	93
22	ARAP3	1	-0.257	76.8
23	ARAP3	2	0.586	93.5
24	ARAP3	3	-0.0793	80.3
25	TLL1	1	-0.0381	81.1
26	TLL1	2	2.58	133
27	TLL1	3	-0.44	73.1
28	MUSK	1	1.49	112
29	MUSK	2	-0.118	79.5
30	MUSK	3	0.132	84.5
31	THAP1	1	-0.581	70.3
32	THAP1	2	-0.109	79.7
33	THAP1	3	0.385	89.5
34	SCG5	1	0.161	85.1
35	SCG5	2	0.048	82.8
36	SCG5	3	-0.961	62.8
37	DNAJC27	1	-1.28	56.4
38	DNAJC27	2	0.22	86.3
39	DNAJC27	3	1.57	113
40	IFT20	1	0.393	89.7
41	IFT20	2	-0.915	63.7
42	IFT20	3	-0.873	64.5
43	PKN2	1	0.488	91.6
44	PKN2	2	0.39	89.7
45	PKN2	3	0.172	85.3
46	COL23A1	1	-0.209	77.7
47	COL23A1	2	0.671	95.2
48	COL23A1	3	2.67	135
49	WDFY1	1	0.34	88.7
50	WDFY1	2	-0.382	74.3
51	WDFY1	3	-2.58	30.6
52	WAPL	1	0.107	84
53	WAPL	2	0.746	96.7
54	WAPL	3	1.15	105
55	STX1A	1	2.56	133
56	STX1A	2	1.84	119
57	STX1A	3	-1.29	56.2
58	ATP5MC2	1	0.9	99.8
59	ATP5MC2	2	-0.823	65.5
60	ATP5MC2	3	2.14	125
61	CDRT15L2	1	2.27	127
62	CDRT15L2	2	0.0058	82
63	CDRT15L2	3	-0.277	76.4
64	PIAS4	1	-0.133	79.2
65	PIAS4	2	0.0802	83.5
66	PIAS4	3	-0.105	79.8
67	IGSF9B	1	0.439	90.6
68	IGSF9B	2	-0.136	79.2
69	IGSF9B	3	-0.245	77
70	IGSF9B	4	2.36	129
71	IGSF9B	5	-1.86	44.9
72	IGSF9B	6	0.113	84.1
73	UCP3	1	0.342	88.7
74	UCP3	2	-0.472	72.5
75	UCP3	3	0.0205	82.3

Part of the list above, showing only “total luciferase, % of control”:
TLL1 #1	81.1
TLL1 #2	133
TLL1 #3	73.1
MUSK #1	112
MUSK #2	79.5
MUSK #3	84.5
THAP1 #1	70.3
THAP1 #2	79.7
